From PMC6548965

Chains of the proteins cited; added tags and fusions are not shown. A line that says so, or that is headed by a name, gives the form on record, which may keep a tag or linker. Residues count along the entry.
UniProt P32004, 20-1257: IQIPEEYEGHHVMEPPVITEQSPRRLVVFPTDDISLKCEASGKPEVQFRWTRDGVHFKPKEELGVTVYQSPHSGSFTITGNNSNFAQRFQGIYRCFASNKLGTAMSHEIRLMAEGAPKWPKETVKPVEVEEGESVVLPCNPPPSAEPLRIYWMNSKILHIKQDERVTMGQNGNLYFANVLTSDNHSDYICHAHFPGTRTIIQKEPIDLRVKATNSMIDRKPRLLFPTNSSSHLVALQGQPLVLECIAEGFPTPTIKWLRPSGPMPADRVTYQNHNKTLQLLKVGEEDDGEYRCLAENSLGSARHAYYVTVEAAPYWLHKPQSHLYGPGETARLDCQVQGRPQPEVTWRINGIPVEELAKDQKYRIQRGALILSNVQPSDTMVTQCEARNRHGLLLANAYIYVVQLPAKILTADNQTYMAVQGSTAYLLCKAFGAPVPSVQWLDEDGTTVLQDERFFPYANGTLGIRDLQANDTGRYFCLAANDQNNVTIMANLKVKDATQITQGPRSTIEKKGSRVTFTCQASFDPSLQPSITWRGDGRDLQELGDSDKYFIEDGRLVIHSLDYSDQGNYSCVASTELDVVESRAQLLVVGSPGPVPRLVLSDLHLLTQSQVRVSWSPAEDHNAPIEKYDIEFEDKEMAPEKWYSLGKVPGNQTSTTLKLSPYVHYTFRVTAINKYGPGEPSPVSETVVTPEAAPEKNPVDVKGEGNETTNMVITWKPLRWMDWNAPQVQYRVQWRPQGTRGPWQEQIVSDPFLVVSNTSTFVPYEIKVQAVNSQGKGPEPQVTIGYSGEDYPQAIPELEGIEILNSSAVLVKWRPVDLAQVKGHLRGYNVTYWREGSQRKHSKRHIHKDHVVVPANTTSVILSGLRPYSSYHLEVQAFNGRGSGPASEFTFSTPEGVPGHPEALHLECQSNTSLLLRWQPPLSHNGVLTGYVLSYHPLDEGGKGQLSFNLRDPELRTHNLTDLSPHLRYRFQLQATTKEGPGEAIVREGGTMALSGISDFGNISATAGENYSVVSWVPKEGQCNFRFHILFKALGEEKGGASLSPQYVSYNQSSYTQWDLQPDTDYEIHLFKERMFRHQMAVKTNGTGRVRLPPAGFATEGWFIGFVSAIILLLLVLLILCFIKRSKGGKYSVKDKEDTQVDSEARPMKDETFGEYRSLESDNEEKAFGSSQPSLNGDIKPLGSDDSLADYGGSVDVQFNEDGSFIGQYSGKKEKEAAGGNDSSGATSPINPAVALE
AP heterodimer (IAP/PLAP) on LoVo cells (human), one chain, as listed by the source, chain 2 of 2: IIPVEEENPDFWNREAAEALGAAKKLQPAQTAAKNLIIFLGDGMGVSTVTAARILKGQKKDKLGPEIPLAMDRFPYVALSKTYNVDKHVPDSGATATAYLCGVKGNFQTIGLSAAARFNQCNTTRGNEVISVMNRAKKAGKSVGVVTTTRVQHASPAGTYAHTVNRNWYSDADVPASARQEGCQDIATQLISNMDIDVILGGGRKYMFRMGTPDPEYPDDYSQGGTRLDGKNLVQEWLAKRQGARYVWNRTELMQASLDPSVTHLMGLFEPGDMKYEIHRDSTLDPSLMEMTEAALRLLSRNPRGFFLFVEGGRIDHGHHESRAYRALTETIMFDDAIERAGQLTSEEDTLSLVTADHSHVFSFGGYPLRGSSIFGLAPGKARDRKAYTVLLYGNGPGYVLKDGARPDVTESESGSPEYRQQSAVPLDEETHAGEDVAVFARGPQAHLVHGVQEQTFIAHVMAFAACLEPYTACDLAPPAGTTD
AP heterodimer (IAP/PLAP) on LoVo cells (human), one chain, as listed by the source, chain 1 of 2: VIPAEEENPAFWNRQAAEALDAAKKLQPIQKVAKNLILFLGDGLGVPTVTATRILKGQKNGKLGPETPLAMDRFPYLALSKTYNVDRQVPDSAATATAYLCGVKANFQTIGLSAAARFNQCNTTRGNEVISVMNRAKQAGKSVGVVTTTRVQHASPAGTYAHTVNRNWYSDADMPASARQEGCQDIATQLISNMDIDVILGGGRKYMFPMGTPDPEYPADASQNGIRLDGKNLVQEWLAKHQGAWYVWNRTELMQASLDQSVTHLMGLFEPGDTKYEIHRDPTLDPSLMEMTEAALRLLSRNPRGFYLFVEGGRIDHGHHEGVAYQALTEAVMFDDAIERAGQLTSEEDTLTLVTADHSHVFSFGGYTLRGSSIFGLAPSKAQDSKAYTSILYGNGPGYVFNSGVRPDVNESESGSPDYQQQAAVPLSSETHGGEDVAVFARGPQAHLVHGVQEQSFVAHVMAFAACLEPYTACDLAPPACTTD

Legend:
[1] = tested on: AP heterodimer (IAP/PLAP) on LoVo cells (human); assay: flow cytometry; conditions: LoVo cells, PBS pH 7.4 (about 137 mM NaCl) with 5 mM MgCl2, 4.5 g/L glucose, 1 mg/mL BSA, 0.1 mg/mL herring sperm DNA, 30 min at 4 C, protein on the cell surface, label: FITC or AF647
[2] = tested on: AP heterodimer (IAP/PLAP) on LoVo cells (human); assay: pull-down, immunoblot; conditions: PBS pH 7.4 (about 137 mM NaCl) with 5 mM MgCl2, 4.5 g/L glucose, 1 mg/mL BSA, 0.1 mg/mL herring sperm DNA, 30 min at 4 C, protein on the cell surface
[3] = target: L1CAM on SH-SY5Y cells (human) (UniProt P32004); assay: flow cytometry; conditions: SH-SY5Y cells, L1CAM high, L1CAM knockdown on LoVo did not affect BG2 binding; PBS pH 7.4 (about 137 mM NaCl) with 5 mM MgCl2, 4.5 g/L glucose, 1 mg/mL BSA, 0.1 mg/mL herring sperm DNA; 30 min at 4 C; protein on the cell surface; label: FITC or AF647 (flow cytometry); folded or branched DNA
[4] = tested on: IAP (intestinal alkaline phosphatase) overexpressed on PC-3 cells + PLAP (placental alkaline phosphatase) overexpressed on PC-3 cells; assay: flow cytometry; conditions: PC-3 cotransfected with IAP + PLAP; PBS pH 7.4 (about 137 mM NaCl) with 5 mM MgCl2, 4.5 g/L glucose, 1 mg/mL BSA, 0.1 mg/mL herring sperm DNA; 30 min at 4 C; protein on the cell surface; label: FITC or AF647 (flow cytometry); folded or branched DNA

CAAGGAATAGGGGTCGGTGTGGGTGGTGGCTTCCTTG [BG2m]
binding result ([1]; folded or branched DNA): no binding

CAAGGAATAGGGGTCGGTGTGGGTGGTTATGATTGGCTTCCTTG [BG2-biotin]
binding result ([2]; in situ crosslinked, IAP and PLAP both detected, label: biotin (or biotin-disulfide), folded or branched DNA): binds

TAGGGGTCGGTGTGGGTGGTTATGATT [BG2c2]
binding result ([1]; single-stranded DNA): no binding

CAAGGAATAGGGGTCGGTGTGGGTGGTTATGATTGGCTTCCTTG [BG2]
binding result [3]: no binding | binding result [4]: binds

TGTCCGTGTTTTTGGTTTGCTGCGGTGGGCTCATGGAC [BC1]
binding result ([2]; neither IAP nor PLAP pulled down, label: biotin, single-stranded DNA): no binding

TCAAGGAATAGGGGTCAGTGTGGGTGGTTATGATTGGCTTCCTTG [BG2a]
binding result ([1]; folded or branched DNA): no binding

CAAGGAATATTTTTCTTTGTTTTTTTTTATGATTTTCTTCCTTG [BG2t]
binding result ([1]; folded or branched DNA): no binding

TCGGTGTGGGTGGTTATGATTGGC [BG2c3]
binding result ([1]; single-stranded DNA): no binding

For at least one entry, the source does not settle the construct or the ends of the probe. At least one result comes from cells or an extract, where the contact may be indirect. For part of these data: A negative result means that nothing was seen under these conditions. For part of these data: At least one verdict rests on a figure or table, not on a statement of the authors.
